US6506373B1, “Agent and method for permanent waving” (Wella Aktiengesellschaft, priority 1998, dated 2003)
Where two headings read alike, the source gives them in different places.

Conditions: average of 3 strands

| Compound | Cystine (3 permanent wave treatments) [µmol/g] | Cystine (6 permanent wave treatments) [µmol/g] |
| --- | --- | --- |
| O=C1O[C@H]([C@@H](O)CO)C(=O)C1=O [Dehydroascorbic Acid, dehydroascorbic acid] | 570 | 546 |
| OO [Peroxide, hydrogen peroxide, reference compound] | 541 | 429 |
